Reference: article PMC9976406, “ANGPTL2 binds MAG to efficiently enhance oligodendrocyte differentiation” (Cell & Bioscience, 2023)
No constants are given. Whether binding was seen depends on the method and setting. Where a sequence is shown, tags or fusion partners need not be part of it.

Experiments:
[1] = molecular target: human MAG G389D/Y341A (mutant IgG4 domain) (human); experiment: flow cytometry on cells; 293T cells transfected with MAG-GFP plasmids, collected after 48 h, incubated with ANGPTL2-Flag (or other ANGPTL) conditioned medium at 4 °C for 1-2 h, then anti-Flag-APC and PI; binding read in EGFP+ cells
[2] = molecular target: human MAG G301D/Y303A (mutant IgG3 domain) (human); experiment: as above

B1: ANGPTL2-Flag (angiopoietin-like protein 2) (ligand, UniProt Q9UKU9 23-493, looked up)
chain: QEDGFEGTEEGSPREFIYLNRYKRAGESQDKCTYTFIVPQQRVTGAICVNSKEPEVLLENRVHKQELELLNNELLKQKRQIETLQQLVEVDGGIVSEVKLLRKESRNMNSRVTQLYMQLLHEIIRKRDNALELSQLENRILNQTADMLQLASKYKDLEHKYQHLATLAHNQSEIIAQLEEHCQRVPSARPVPQPPPAAPPRVYQPPTYNRIINQISTNEIQSDQNLKVLPPPLPTMPTLTSLPSSTDKPSGPWRDCLQALEDGHDTSSIYLVKPENTNRLMQVWCDQRHDPGGWTVIQRRLDGSVNFFRNWETYKQGFGNIDGEYWLGLENIYWLTNQGNYKLLVTMEDWSGRKVFAEYASFRLEPESEYYKLRLGRYHGNAGDSFTWHNGKQFTTLDRDHDVYTGNCAHYQKGGWWYNACAHSNLNGVWYRGGHYRSRYQDGVYWAEFRGGSYSLKKVVMMIRPNPNTFH
notes: angiopoietin-like protein 2 (ANGPTL2), secreted into the conditioned medium of 293T cells; The same ANGPTL2-Flag was used on human and murine MAG; also called purified ANGPTL2 protein; source: 293T, transfected with CMV-ANGPTL2-Flag; conditioned medium collected after 48 h, or purified from it with M2 resin
binding [1]: no binding | binding [2]: no binding
